Test results reported in the supplement of paper PMC6411743.
± gives the standard deviation of the averaged measurements. The list shows a part of the results.

Target: T1, PGLS (UniProt O95336)
T1 sequence (whole entry): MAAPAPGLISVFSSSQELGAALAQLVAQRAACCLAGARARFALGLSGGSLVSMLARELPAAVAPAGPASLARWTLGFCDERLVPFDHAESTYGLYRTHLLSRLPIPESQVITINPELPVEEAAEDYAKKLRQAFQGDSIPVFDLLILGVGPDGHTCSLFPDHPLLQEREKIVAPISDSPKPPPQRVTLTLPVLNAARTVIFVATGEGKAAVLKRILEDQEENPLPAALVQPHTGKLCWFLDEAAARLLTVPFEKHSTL
Assay: NP40-soluble protein abundance relative to vehicle (solubility fold change) (ratio); higher = more soluble protein in presence of GTP
Description: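 Solubility proteome profiling in Jurkat crude lysate. Lysate was treated with Mg-GTP (0.1-10 mM) for 10 min at room temperature and 3 min at 37 °C, then solubilised with 0.8% NP40 and benzonase, followed by ultracentrifugation. Proteins were quantified by TMT10 LC-MS/MS; the value is the NP40-soluble abundance relative to the NP40-processed vehicle, from 3 independent experiments.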

`Nc1nc2c(ncn2[C@@H]2O[C@H](COP(=O)(O)OP(=O)(O)OP(=O)(O)O)[C@@H](O)[C@H]2O)c(=O)[nH]1` [guanosine triphosphate] gave an NP40-soluble protein abundance (concentration: 0.1mM) of 0.913 ± 0.031, an NP40-soluble protein abundance (concentration: 0.5mM) of 0.857 ± 0.04 and an NP40-soluble protein abundance (concentration: 1mM) of 0.952 ± 0.016. For the same compound, the NP40-soluble protein abundance (concentration: 2mM) was 0.9351 ± 0.0062, the NP40-soluble protein abundance (concentration: 4mM) was 0.925 ± 0.022 and the NP40-soluble protein abundance (concentration: 6mM) was 0.903 ± 0.025. It also gave an NP40-soluble protein abundance (concentration: 8mM) of 0.823 ± 0.13 and an NP40-soluble protein abundance (concentration: 10mM) of 0.886 ± 0.061.
